Percent effect of library compounds

A: 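Phenotypic screen: M. tuberculosis growth, cholesterol and DPPC medium, 4 days; the read-out is not stated. Concentration: 50 µM. The record gives no direction; compounds that gave an IC50 in retests scored well above the rest, so higher reads as more growth inhibition. Of about 69,000 compounds tested this way, about 370 (0.54%) reached 50% or more in at least one test.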
B: 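Phenotypic screen: M. tuberculosis growth, glucose 7H9 medium, 3 days; the read-out is not stated. Tested at 50 µM. Direction is inferred from retests: higher values go with more growth inhibition. Size under these conditions: about 69,000 compounds, about 760 of them at 50% or above in at least one test.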

The filed quantity is “Percent Effect” (%).
How 0% and 100% were set is not recorded. Most values in the screen are low, and negative values occur.
This is an unselected part of the compounds tested.
Two or more numbers in one place are separate tests of the same structure; such repeats can differ widely.

SMILES: O=C(O)C(F)(F)F.[H][C@@]12CCN(CCc3ccccc3)C[C@]1([H])O[C@@H](C(=O)NCCOC)C2
A: -4.88% and -10.04%
B: -3.668%

SMILES: CCn1cc(N2Cc3nc(N)ncc3C2=O)cn1
A: -18.99%
B: -8.591%

SMILES: c1ccc(-n2ccnc2)c(CNCC2CNc3ccnn3C2)c1 (centres undefined)
A: 0.8946%
B: 2.779%

SMILES: Cn1cc(CN2CCn3c(CNC(=O)c4cccn4C)cnc3C2)cn1.O=C(O)C(F)(F)F
A: -32.37%
B: -30.37%

SMILES: CSc1ccsc1C(=O)NS(=O)(=O)c1ccc(F)cc1
A: -7.858%
B: -23.32%

SMILES: CC(=O)N1CCCN(C(=O)NCCOc2ccc3c(c2)OCO3)CC1
A: -11.39%
B: -10.21%

SMILES: Cc1cc(-c2ccc(=O)n(C3CCN(C(=O)C4CC4)CC3)n2)c(C)o1
A: -20.47%
B: -28.87%

SMILES: CC(C)C(=O)NS(=O)(=O)c1ccc(F)c(C(F)(F)F)c1
A: 0.294%
B: -0.5987% and 9.556%

SMILES: Cc1ccn(-c2ccc(NCc3ccccc3F)nn2)n1
A: 2.767% and 69.47%
B: 44.05%

SMILES: CN(CC1COc2ccccc2O1)C(=O)NCCCn1cccn1 (centres undefined)
A: 9.833%
B: -14.03%

SMILES: COCCn1cnnc1Cn1ccnc1-c1ccccc1C
A: 4.506%
B: -41.64%

SMILES: Cc1ccc(S(=O)(=O)NC(=O)C2(c3ccc(F)cc3)CCC2)c(C)c1
A: -18.56%
B: -4.622%

SMILES: Cc1nc(CNC(=O)CCN2CCN(c3ccccn3)CC2)oc1C
A: -17.65%
B: -22.93% and -7.572%

SMILES: Cc1csc(N2CCN(C(=O)CCc3nccs3)CC2)n1
A: 19.11%
B: 41.74%

SMILES: CCN1CCN(c2ccc(F)cc2C(C)NCc2cscn2)CC1 (centres undefined)
A: 2.434%
B: -0.2402% and 2.575%

SMILES: COc1nc2c(cc1C(=O)NCCc1nc3ccccc3s1)CCC2
A: 7.789%
B: 22.79%

SMILES: Cc1cc(CC(=O)NC2CCCN(c3ccccc3F)C2=O)n[nH]1 (centres undefined)
A: 0.3436%
B: 6.124%

SMILES: Cc1ccc(C(=O)NCc2ccnc(N(C)C)c2)c(C)c1
A: -2.515%
B: 13.02%

SMILES: O=C(O)C(F)(F)F.[H][C@@]12COC[C@H](C(=O)N3CCCCO3)[C@]1([H])CN(Cc1c(C)noc1C)C2
A: 3.922%
B: 12.22%

SMILES: CC(C)OCCOCc1cccc(NC(=O)NCc2ccncc2)c1
A: -23.48%
B: -53.24%

SMILES: COc1ccc(S(=O)(=O)NCC(O)c2sccc2C)cc1C (centres undefined)
A: 9.972%
B: 5.55% and 21.8%

SMILES: Cc1nc(CNCC(C)c2nc3ccccc3o2)cs1 (centres undefined)
A: 21.62%
B: 29.87%

SMILES: Cn1cnc2c1CCN(Cc1csc(-c3ccco3)n1)C2
A: 17.7%
B: 14.12%

SMILES: O=C1CC2(CCN(C(=O)c3ccccn3)CC2)Oc2c(Br)cc(Br)cc21
A: -2.057%
B: 12.19%

SMILES: Cc1noc(CCCC(=O)N2CCNC(=O)C2)n1
A: -10.73%
B: -24.44% and -1.632%

SMILES: O=C(CCS(=O)(=O)C1CCCC1)NCc1ccccc1Cn1cncn1
A: -17.92%
B: -16.64%

SMILES: Cc1ccc(F)c(CNc2ccn(CCC(N)=O)n2)c1
A: 4.823%
B: 9.652% and 12.5%

SMILES: COCCS(=O)(=O)NC(C)c1ccccc1Cl (centres undefined)
A: 10.66%
B: 10.76%

SMILES: CCCN1CCC(N2CCC(Cn3cc(C4CC4)nn3)CC2)CC1
A: 16.34%
B: -5.255% and 1.254%

SMILES: COc1cccc(-c2cnc3n2CCC32CCN(S(C)(=O)=O)CC2)c1
A: 8.432%
B: -2.35% and -4.861%

SMILES: O=C(O)C(F)(F)F.O=C(O)C(F)(F)F.O=C1N(c2ccsc2)CCC12CCCN(Cc1cccnc1)C2 (centres undefined)
A: 11.96%
B: 24.64% and 4.156%

SMILES: CC(C)c1nsc(N2CCn3c(nnc3-c3ccccc3)C2)n1
A: 14.33%
B: -0.1773% and -2.099%

SMILES: [H][C@@]12CCN(C(=O)c3ccc[nH]3)[C@@]1([H])CC(=O)N2CCOC
A: 5.568%
B: -31.8%

Some entries from above, unchanged:

| SMILES | A | B |
|---|---|---|
| `Cc1nc(CNC(=O)CCN2CCN(c3ccccn3)CC2)oc1C` | -17.65% | -22.93% and -7.572% |
| `Cc1cc(CC(=O)NC2CCCN(c3ccccc3F)C2=O)n[nH]1` (centres undefined) | 0.3436% | 6.124% |

Data taken from ChEMBL document CHEMBL3988442, “University of Dundee, Small-Polar-MMV Screening Library” (2021).